# This is one part of the list.
# Target: T1, OsSMF1 (Oryza sativa, UniProt Q6ZLB0 1-436)
# T1 sequence: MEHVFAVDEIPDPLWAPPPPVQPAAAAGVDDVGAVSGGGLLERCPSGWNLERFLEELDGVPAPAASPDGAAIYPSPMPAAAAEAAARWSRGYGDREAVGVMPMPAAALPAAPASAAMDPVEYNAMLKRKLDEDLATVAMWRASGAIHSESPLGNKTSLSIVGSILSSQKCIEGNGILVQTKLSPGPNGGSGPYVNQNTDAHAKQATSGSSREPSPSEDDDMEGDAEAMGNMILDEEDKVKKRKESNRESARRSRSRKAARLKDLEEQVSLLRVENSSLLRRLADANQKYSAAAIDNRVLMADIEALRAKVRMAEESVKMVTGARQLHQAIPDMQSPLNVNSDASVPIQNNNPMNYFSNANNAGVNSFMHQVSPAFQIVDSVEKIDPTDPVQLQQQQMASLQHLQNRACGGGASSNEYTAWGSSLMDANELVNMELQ
# Experiment: protein-binding microarray (RPBM); PBS, 2% BSA, 51.3 ng/ul salmon testes DNA, 50 uM zinc acetate, 200 nM TF, 25 C, 1 h; high values mean tight binding
# Conditions: protein: recombinant; tags: N-terminal polyhistidine and DsRed monomer fusion (pET32a); chain copies: 2; label: CyDye5-dUTP incorporated in the synthesized complementary strand; 3' TTTTT single-stranded linker to array surface; dsDNA, one strand shown
# Outline: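 The binding signal is fluorescence intensity per feature, in arbitrary units, read on an Axon 4000B scanner. Polyhistidine- and DsRed-tagged transcription factors (N-terminal fusions) from E. coli BL21-CodonPlus were purified on Ni–NTA and applied at 200 nM for 1 h at 25 °C to a double-stranded, BSA-blocked custom Agilent array in buffer with 50 µM zinc acetate.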
row,Sequence,binding signal
1,TTCCCGCCTACATTTTCGCCACGTCAGCGATCCGCACCGACGGAGTCACCTAGTGCAG,9350 fluorescence intensity (a.u.)
2,ACTGTATTCCAGATCAGTAAACAGGCAGACGTATAATATACGGAGTCACCTAGTGCAG,23200 fluorescence intensity (a.u.)
3,CCATGTGGAGGGAATTTTGCCCGAACAAGAGGTGACTGTGCGGAGTCACCTAGTGCAG,4540 fluorescence intensity (a.u.)
4,TGTACTATACTTGTGATGATGATGATCAGCCTCATAGTAGCGGAGTCACCTAGTGCAG,4340 fluorescence intensity (a.u.)
5,TACTCTGACATGAATTGGTAATTTTATATAGGCTTTATCTCGGAGTCACCTAGTGCAG,3200 fluorescence intensity (a.u.)
6,TCTCAATATCCAGTCGACGAGTCAGCAGCAGAGACGCAGACGGAGTCACCTAGTGCAG,5450 fluorescence intensity (a.u.)
7,TCTCTCTCACTCTTCTCTTGCAGGCCTGCGTGGCATACTACGGAGTCACCTAGTGCAG,7430 fluorescence intensity (a.u.)
8,GGAAAACTGCCAATAGCATCATCATCAGGTTCTCTGATATCGGAGTCACCTAGTGCAG,22000 fluorescence intensity (a.u.)
9,CGTCGATGCCAATACAATAACCATCATCATCATCATCATTCGGAGTCACCTAGTGCAG,20400 fluorescence intensity (a.u.)
10,AAATCACAGAGTATTTTGGGTAGTGATGCTCGTGAGCCTACGGAGTCACCTAGTGCAG,4140 fluorescence intensity (a.u.)
11,GCAGCGGAAGACGTCGCGGCCGCGTCGACGATGACGCGCGCGGAGTCACCTAGTGCAG,3660 fluorescence intensity (a.u.)
12,TTAGGCCTCTCACAGTGCTCTTAGCTGGACCGGTGCTACACGGAGTCACCTAGTGCAG,3920 fluorescence intensity (a.u.)
13,GTCGCCATGCTCGCCGCCGTGGCCACGCTCCTCCTCGACACGGAGTCACCTAGTGCAG,5020 fluorescence intensity (a.u.)
14,GTGTGTGTGTGTGTGTGTGTGTGAACGATCGGTCTGTATCCGGAGTCACCTAGTGCAG,3920 fluorescence intensity (a.u.)
15,TGGCCCGCGGAGACGCAGAGGTTCCCCGGCATGGAGAACACGGAGTCACCTAGTGCAG,23000 fluorescence intensity (a.u.)
16,TTATTATTATCGGCTGCCTCCACACGCACACGTGGGATAGCGGAGTCACCTAGTGCAG,6630 fluorescence intensity (a.u.)
17,AGACGCCACGCCGACACGCAGCTGCGTGTGCGAGGAGGAACGGAGTCACCTAGTGCAG,4930 fluorescence intensity (a.u.)
18,CTGCGTCGCATCGCTAGCCAACACGTACGTACAGCGCGCACGGAGTCACCTAGTGCAG,26600 fluorescence intensity (a.u.)
19,TGTGAGATGACCAGCGAGTGATTGGTAAACTGTTTCAGTGCGGAGTCACCTAGTGCAG,13100 fluorescence intensity (a.u.)
20,TCCCACGTTCAAGCCCTCCTCACCACCCTCACACCTCACACGGAGTCACCTAGTGCAG,3460 fluorescence intensity (a.u.)
21,CGTGTTCGCTTCCCGTGATATCCACGTCACCCTGCGCTGGCGGAGTCACCTAGTGCAG,25800 fluorescence intensity (a.u.)

# Exported bar-delimited: entries from further up.
row | Sequence | binding signal
10 | AAATCACAGAGTATTTTGGGTAGTGATGCTCGTGAGCCTACGGAGTCACCTAGTGCAG | 4140 fluorescence intensity (a.u.)
11 | GCAGCGGAAGACGTCGCGGCCGCGTCGACGATGACGCGCGCGGAGTCACCTAGTGCAG | 3660 fluorescence intensity (a.u.)

# (list continues)

row,Sequence,binding signal
1,TTTTCTTCTGTTCGTGTGCGTGCTCGCGCCTTTCTTGCTTCGGAGTCACCTAGTGCAG,4250 fluorescence intensity (a.u.)
2,TATTTCTTCACCTTTAGTCATGTCACCTCTCACTTCACACCGGAGTCACCTAGTGCAG,5120 fluorescence intensity (a.u.)
3,GCAAACTACCGGGAGCAGGTGGCTGCACTTGTGTCAGCACCGGAGTCACCTAGTGCAG,6160 fluorescence intensity (a.u.)
4,ATCATGCCACCTATCTCTCCATTGCCAGCACAACATCCATCGGAGTCACCTAGTGCAG,7220 fluorescence intensity (a.u.)
5,TCGCGTCCCTCCGTCTCCGGCCAGCTAGTGGAGTGGAGTACGGAGTCACCTAGTGCAG,14700 fluorescence intensity (a.u.)
6,CGGCAGGTCTCCCGATGCGTGCCACGTGTACGGCGGATGGCGGAGTCACCTAGTGCAG,12900 fluorescence intensity (a.u.)
7,CAGCAACGGGATCAACGGTGACCAGATCTGAGCCGTGCTGCGGAGTCACCTAGTGCAG,3230 fluorescence intensity (a.u.)
8,TCCCACATGCTGAGTCAGCTCGTCAACCGGGTCAATGACGCGGAGTCACCTAGTGCAG,15800 fluorescence intensity (a.u.)
9,AATCCATAATTAGAGAATGTTTACTGTAGCATCACATAGGCGGAGTCACCTAGTGCAG,3290 fluorescence intensity (a.u.)
10,CGCCGGCGCTCGAGGCGCTGCACATCCACGTGTCCGCGTCCGGAGTCACCTAGTGCAG,13800 fluorescence intensity (a.u.)
11,GGGTTCTCCTCCGAGGCGCCACACGTCATGCTTCTCCTCTCGGAGTCACCTAGTGCAG,5350 fluorescence intensity (a.u.)
12,AACGTTTGTTAGTACGGTGGTGACGTGGCGTGGGTCCAACCGGAGTCACCTAGTGCAG,22100 fluorescence intensity (a.u.)
13,GGCGGTGCTGGTGGAGGCGGTGGTCTCGGAGGTGGAGCAGCGGAGTCACCTAGTGCAG,46000 fluorescence intensity (a.u.)
14,CACAAACTTTACAGTTTACACGCTACGCAAACGTACGCCCCGGAGTCACCTAGTGCAG,21400 fluorescence intensity (a.u.)
15,GGTCTATAAATTCATGTACATTAGCACAACAACCACTACACGGAGTCACCTAGTGCAG,3630 fluorescence intensity (a.u.)
16,TGGCCTAATGATTTAGTAGAGTTTGCACCCTGCAATCGGTCGGAGTCACCTAGTGCAG,31300 fluorescence intensity (a.u.)
17,GTGTAAACGTCGTTGCCGCCCACTCGCCGGCACGTCGCCACGGAGTCACCTAGTGCAG,3330 fluorescence intensity (a.u.)
18,TCCAGTCTCATCACTTTGCTCCAAAAGAATAAGTTAGTGGCGGAGTCACCTAGTGCAG,30500 fluorescence intensity (a.u.)
19,CTCCGCGTTCCTCACTTGCTAACGGGAGAAACCAACGTGGCGGAGTCACCTAGTGCAG,4900 fluorescence intensity (a.u.)
20,CGCCGCCTCCTCGTTCTTCCCTAGCCGTCGTCACCGCCCGCGGAGTCACCTAGTGCAG,3370 fluorescence intensity (a.u.)
21,GACGTAGGAAGTATGCTTATAGAATGCTATTGTACGGTACCGGAGTCACCTAGTGCAG,20800 fluorescence intensity (a.u.)

# From article PMC7819943, “Rice protein-binding microarrays: a tool to detect cis-acting elements near promoter regions in rice”
